Test results: PubChem BioAssay AID330 (DTP/NCI, 2004)
The list shows only some results of the screen, not a fair sample: it gathers tests that were run many times, whatever their T/C, doses with no T/C, and many T/C values between a quarter and a half above the control. Other doses and runs of a compound stand elsewhere. T/C is the treated group as % of the vehicle group. Some entries give survivors of the animals treated and no T/C: the source files T/C as zero there, which appears to mark a toxic dose or a test without result, not a measured value. Some survivor counts are full or nearly so, which does not show that the dose was tolerated: survival well below the control is almost never listed, so the zero probably covers shortened survival too. Counts of survivors are from the toxicity check (mostly the fifth day) where no day follows; animals may have died later. Schedules are NCI's codes, read here as Q, the interval in days (D) or hours (H), X, the number of doses. For survival time, this PubChem deposit counts one and a half times the control or more as active, and values a quarter to a half above the control carry no call in these data; other NCI protocols may use other cut-offs. Some T/C values are followed by the survivors on the day toxicity was checked, most often the fifth; without a count, all were alive then. Some entries were tested several times; the results are listed from low to high.

Test system: P388 leukemia ip, CD2F1 mice, survival T/C
Assay: NCI In Vivo Anticancer Drug Screen. Data for tumor model P388 Leukemia (intraperitoneal) in CD2F1 (CDF1) mice
Settings: T/C endpoint: median survival time, higher T/C = longer survival
[1] = dose: 100.0 mg/kg/injection, schedule: Q01DX009 (ip), vehicle: saline
[2] = dose: 200.0 mg/kg/injection, schedule: Q01DX009 (ip), vehicle: saline with Tween-80
[3] = dose: 200.0 mg/kg/injection, schedule: Q01DX005 (ip), vehicle: Klucel (hydroxypropylcellulose) (HPC)
[4] = dose: 50.0 mg/kg/injection, schedule: Q01DX005 (ip), vehicle: saline with Tween-80
[5] = dose: 200.0 mg/kg/injection, schedule: Q01DX005 (ip), vehicle: saline with Tween-80
[6] = dose: 100.0 mg/kg/injection, schedule: Q01DX009 (ip), vehicle: saline with Tween-80
[7] = dose: 200.0 mg/kg/injection, schedule: Q04DX003 (ip), vehicle: saline with Tween-80
[8] = dose: 50.0 mg/kg/injection, schedule: Q01DX009 (ip), vehicle: saline with Tween-80

## CCC(c1ccc(OCCS(=O)(=O)OC)cc1)C(CC)c1ccc(OCCS(=O)(=O)OC)cc1 (centres undefined)
[1]
  survivor count: 6 of 6
dose: 100.0 mg/kg/injection, schedule: Q01DX009 (ip), vehicle: suspension in saline
  survivor count: 5 of 6
dose: 200.0 mg/kg/injection, schedule: Q01DX009 (ip), vehicle: suspension in saline
  survivor count: 6 of 6

## Nc1ccc2c(Cl)cc(Cl)cc2c1
[2]
  survivor count: 2 of 6

## CC1=C(O)C(=O)C=C2C1=CC=C1[C@@]2(C)CCC2(C)[C@@H]3C[C@@H](C)C(=O)C[C@]3(C)CC[C@]12C (some centres undefined)
dose: 32.5 mg/kg/injection, schedule: Q01DX005 (ip), vehicle: Klucel (hydroxypropylcellulose) (HPC)
  survivor count: 6 of 6
dose: 65.0 mg/kg/injection, schedule: Q01DX005 (ip), vehicle: Klucel (hydroxypropylcellulose) (HPC)
  survivor count: 6 of 6
dose: 130.0 mg/kg/injection, schedule: Q01DX005 (ip), vehicle: Klucel (hydroxypropylcellulose) (HPC)
  survivor count: 6 of 6

## COc1cccc2c1C(=O)c1c(O)c3c(c(O)c1C2=O)C[C@@](O)(C(C)O)C[C@@H]3OC1CC(N2CCOCC2)C(O)C(C)O1 (some centres undefined)
dose: 1.56 mg/kg/injection, schedule: Q04DX003 (ip), vehicle: water
  survivor count: 0 of 6 on day 9
dose: 3.13 mg/kg/injection, schedule: Q04DX003 (ip), vehicle: water
  survivor count: 0 of 6 on day 9
dose: 6.25 mg/kg/injection, schedule: Q04DX003 (ip), vehicle: water
  survivor count: 0 of 6 on day 9
dose: 12.5 mg/kg/injection, schedule: Q04DX003 (ip), vehicle: water
  survivor count: 0 of 6 on day 9
dose: 25.0 mg/kg/injection, schedule: Q04DX003 (ip), vehicle: water
  survivor count: 0 of 6 on day 9
dose: 50.0 mg/kg/injection, schedule: Q04DX003 (ip), vehicle: water
  survivor count: 0 of 6 on day 9
dose: 800.0 micrograms/kg/injection, schedule: Q04DX003 (ip), vehicle: water
  survivor count: 5 of 6 on day 9

## Nc1nc(Cl)c2[nH]c(Cl)nc2n1
[3]
  survivor count: 5 of 5

## O=C1NC(O)c2cccc(Cl)c2O1 (centres undefined)
dose: 400.0 mg/kg/injection, schedule: Q01DX005 (ip), vehicle: saline with Tween-80
  survivor count: 0 of 5

## C#CC(C)(CC(C)C)OCCN(CC)CC (centres undefined)
[4]
  survivor count: 3 of 6
dose: 100.0 mg/kg/injection, schedule: Q01DX005 (ip), vehicle: saline with Tween-80
  survivor count: 1 of 6
[5]
  survivor count: 0 of 6

## c1csc(-c2[nH]nc3c2CCc2ccccc2-3)c1
dose: 7.5 mg/kg/injection, schedule: Q01DX005 (ip), vehicle: Klucel (hydroxypropylcellulose) (HPC)
  T/C: 125 % of control
dose: 15.0 mg/kg/injection, schedule: Q01DX005 (ip), vehicle: Klucel (hydroxypropylcellulose) (HPC)
  survivor count: 6 of 6
dose: 30.0 mg/kg/injection, schedule: Q01DX005 (ip), vehicle: Klucel (hydroxypropylcellulose) (HPC)
  survivor count: 3 of 6
dose: 60.0 mg/kg/injection, schedule: Q01DX005 (ip), vehicle: Klucel (hydroxypropylcellulose) (HPC)
  survivor count: 6 of 6
dose: 120.0 mg/kg/injection, schedule: Q01DX005 (ip), vehicle: Klucel (hydroxypropylcellulose) (HPC)
  survivor count: 3 of 6
dose: 240.0 mg/kg/injection, schedule: Q01DX005 (ip), vehicle: Klucel (hydroxypropylcellulose) (HPC)
  survivor count: 1 of 6

## COc1cccc(C)c1C(O)CC1CCCN1 (centres undefined)
dose: 200.0 mg/kg/injection, schedule: Q01DX009 (ip), vehicle: Klucel (hydroxypropylcellulose) (HPC)
  survivor count: 0 of 6

## C#CC(C)C(C(C)=O)C(=O)c1ccccc1.[C-]#[O+].[C-]#[O+].[C-]#[O+].[C-]#[O+].[C-]#[O+].[C-]#[O+].[Co].[Co] (centres undefined)
dose: 100.0 mg/kg/injection, schedule: Q01DX005 (ip), vehicle: Klucel (hydroxypropylcellulose) (HPC)
  survivor count: 5 of 6
[3]
  survivor count: 0 of 6

## CC1(C)N=C(N)N=C(N)N1c1ccc(OCCNC(=O)Nc2ccc(S(=O)(=O)F)cc2)c(Cl)c1
dose: 100.0 mg/kg/injection, schedule: Q04DX003 (ip), vehicle: saline
  T/C: 130 % of control
dose: 200.0 mg/kg/injection, schedule: Q04DX003 (ip), vehicle: saline
  survivor count: 4 of 6

## Cc1c2cnccc2c(C)c2c1c1ccccc1n2CC1CO1 (centres undefined)
dose: 2.75 mg/kg/injection, schedule: Q01DX009 (ip), vehicle: saline with Tween-80
  T/C: 132 % of control
dose: 3.13 mg/kg/injection, schedule: Q01DX009 (ip), vehicle: saline with Tween-80
  T/C: 146 % of control
dose: 5.5 mg/kg/injection, schedule: Q01DX009 (ip), vehicle: saline with Tween-80
  T/C: 149 % of control
dose: 16.0 mg/kg/injection, schedule: Q01DX009 (ip), vehicle: Klucel (hydroxypropylcellulose) (HPC)
  T/C: 134 % of control
dose: 32.0 mg/kg/injection, schedule: Q01DX009 (ip), vehicle: Klucel (hydroxypropylcellulose) (HPC)
  T/C: 145 % of control
dose: 32.0 mg/kg/injection, schedule: Q04DX003 (ip), vehicle: Klucel (hydroxypropylcellulose) (HPC)
  T/C: 130 % of control
dose: 37.5 mg/kg/injection, schedule: Q01DX009 (ip), vehicle: saline with Tween-80
  T/C: 130 % of control
dose: 64.0 mg/kg/injection, schedule: Q04DX003 (ip), vehicle: Klucel (hydroxypropylcellulose) (HPC)
  T/C: 139 % of control

## CCCCCCCCCCCCCS
dose: 66.0 mg/kg/injection, schedule: Q01DX009 (ip), vehicle: saline with Tween-80
  T/C: 127 % of control
[6]
  T/C: 131 and 131 % of control [5 of 6 alive]
dose: 100.0 mg/kg/injection, schedule: Q04DX003 (ip), vehicle: saline with Tween-80
  T/C: 131 % of control
dose: 150.0 mg/kg/injection, schedule: Q01DX009 (ip), vehicle: saline with Tween-80
  survivor count: 3 of 6
[2]
  survivor count: 1 of 6
[7]
  T/C: 131 % of control
  survivor count: 2 of 6
dose: 300.0 mg/kg/injection, schedule: Q04DX003 (ip), vehicle: saline with Tween-80
  survivor count: 5 of 6
dose: 400.0 mg/kg/injection, schedule: Q04DX003 (ip), vehicle: saline with Tween-80
  survivor count: 5 of 6

## COC(=O)C(CSC(c1ccccc1)(c1ccccc1)c1ccccc1)NC(=O)C(CC(N)=O)NC(=O)OCc1ccccc1 (centres undefined)
dose: 100.0 mg/kg/injection, schedule: Q01DX009 (ip), vehicle: distilled water + Tween-80
  T/C: 125 and 126 % of control
dose: 200.0 mg/kg/injection, schedule: Q01DX009 (ip), vehicle: distilled water + Tween-80
  survivor count: 6 of 6
dose: 400.0 mg/kg/injection, schedule: Q01DX009 (ip), vehicle: distilled water + Tween-80
  survivor count: 3 of 6

## O=C(CNC(=O)c1ccccc1)N/N=C/c1ccc2c(c1)OCO2
[8]
  T/C: 96, 100, 111 % of control
  survivor count: 6 of 6
[6]
  T/C: 89, 90, 92, 107 % of control
[2]
  T/C: 91, 104, 127 % of control
  survivor count: 6 of 6
dose: 400.0 mg/kg/injection, schedule: Q01DX009 (ip), vehicle: saline with Tween-80
  survivor count: 6 of 6

## O=[N+]([O-])/C=C/c1c[nH]c2c1ccc1ccccc12
[4]
  survivor count: 6 of 6

## CCCCCCCC(=O)[O][Hg][CH2]C1COC([CH2][Hg][O]C(=O)CCCCCCC)CO1 (centres undefined)
dose: 25.0 mg/kg/injection, schedule: Q01DX009 (ip), vehicle: saline sonified
  T/C: 130 % of control

## Cc1ccc(S(=O)(=O)c2c(O)c3ccccc3c3nc4ccccc4nc23)cc1
dose: 25.0 mg/kg/injection, schedule: Q01DX009 (ip), vehicle: saline
  survivor count: 6 of 6
[1]
  survivor count: 5 of 6

## O=Cc1ccc2c(c1)C(O)NC(=O)O2 (centres undefined)
[5]
  survivor count: 0 of 6

## C/C(=N\NC(=S)N1CCN(c2ccccn2)CC1)c1ccccn1
dose: 50.0 mg/kg/injection, schedule: Q01DX005 (ip), vehicle: water
  survivor count: 2 of 6
dose: 100.0 mg/kg/injection, schedule: Q01DX005 (ip), vehicle: water
  survivor count: 0 of 6
dose: 200.0 mg/kg/injection, schedule: Q01DX005 (ip), vehicle: water
  survivor count: 0 of 6
